Results are given in words; binding and its absence hold for the method and conditions named. Binding seen in cells or lysates may run through a third protein. Some entries that bind do so weakly or less than the wild type.
What was measured:
plasmin (Sigma P1867) [1] = molecular target: plasmin (Sigma P1867) (UniProt P00747); test: co-precipitation on FceRIa-coated magnetic beads, Western blot
Plasminogen (human) = Plasminogen (human) (UniProt P00747); test: co-precipitation on FceRIa-coated beads from human serum, LC-MS/MS identification
plasmin (Sigma P1867) [2] = molecular target: plasmin (Sigma P1867) (UniProt P00747); test: co-precipitation of plasmin by FceRIa-coated magnetic beads, Western blot with anti-plasminogen antibody
plasmin (Sigma P1867) [3] = molecular target: plasmin (Sigma P1867) (UniProt P00747); test: co-precipitation on FceRIa-coated magnetic beads (50 µg FceRIa, 1 µg plasmin), Western blot with anti Plasminogen

Chains of the proteins cited; added tags and fusions are not shown. Lines headed by an entry give the natural chain unless they say otherwise; changes in a name come on top. Residues count along the entry.
UniProt P00747: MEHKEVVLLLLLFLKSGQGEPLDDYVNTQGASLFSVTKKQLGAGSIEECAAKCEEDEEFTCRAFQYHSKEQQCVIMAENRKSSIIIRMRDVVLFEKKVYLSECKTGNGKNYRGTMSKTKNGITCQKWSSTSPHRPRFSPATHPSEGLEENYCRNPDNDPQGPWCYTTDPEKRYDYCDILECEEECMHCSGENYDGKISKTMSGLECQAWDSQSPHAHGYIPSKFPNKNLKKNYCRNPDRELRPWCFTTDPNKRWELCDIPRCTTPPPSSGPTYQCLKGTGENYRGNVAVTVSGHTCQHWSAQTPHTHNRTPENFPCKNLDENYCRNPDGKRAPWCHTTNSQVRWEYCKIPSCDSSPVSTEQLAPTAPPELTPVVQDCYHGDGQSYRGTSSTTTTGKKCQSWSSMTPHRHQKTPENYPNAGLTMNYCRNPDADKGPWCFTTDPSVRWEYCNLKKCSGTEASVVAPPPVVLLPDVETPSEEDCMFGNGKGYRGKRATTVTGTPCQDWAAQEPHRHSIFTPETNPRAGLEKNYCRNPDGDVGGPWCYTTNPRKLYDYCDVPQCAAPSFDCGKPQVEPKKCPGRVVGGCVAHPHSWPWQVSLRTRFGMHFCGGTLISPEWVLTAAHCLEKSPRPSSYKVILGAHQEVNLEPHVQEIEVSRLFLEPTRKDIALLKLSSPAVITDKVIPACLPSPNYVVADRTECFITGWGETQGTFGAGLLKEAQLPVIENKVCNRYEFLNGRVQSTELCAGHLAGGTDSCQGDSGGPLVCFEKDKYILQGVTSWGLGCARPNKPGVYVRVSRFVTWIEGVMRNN
Plasminogen: residues 20-810 of P00747
plasmin (Sigma P1867): residues 97-810 of P00747
UniProt P12319: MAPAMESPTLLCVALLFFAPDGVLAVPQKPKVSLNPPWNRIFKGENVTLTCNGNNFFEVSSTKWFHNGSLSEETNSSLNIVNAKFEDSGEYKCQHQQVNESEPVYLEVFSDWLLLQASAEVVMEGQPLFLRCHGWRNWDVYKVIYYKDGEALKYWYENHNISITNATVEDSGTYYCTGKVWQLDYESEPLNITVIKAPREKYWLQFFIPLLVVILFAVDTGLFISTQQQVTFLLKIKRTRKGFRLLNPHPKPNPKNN

Measured: binding

recombinant wild type FceRIa (extracellular region of the alpha chain of the human high-affinity IgE receptor, spacer, 6His) (from UniProt P12319 20-205)
binds: all assays above

Source: patent publication US20190127438A1
